* marks the point of attachment. NHBn = c1ccc(CN*)cc1
Key:
[1] = general procedure: solution-phase peptide synthesis
peptide synthesis = details: whole synthesis, scale 0.424 mmol

(H-Cys-Tyr-Ala-Thr-NHBn)2 showed a step yield ([1]; coupling step, one disulfide bridge, sequence written open) of 40%.
In the case of “Boc-Val-Gln(Tr)-Lys(Boc)-Asp(OAll)-Val-Thr(^tBu)-Ser(^tBu)-OH”, the “crude HPLC purity” value (peptide synthesis) is reported as 83% pure, the crude mass (peptide synthesis) is reported as 422 mg and the crude yield (peptide synthesis) is reported as 73% crude yield.
With “Boc-Val-Gln(Tr)-Lys(Boc)-Asp-Val-Thr(^tBu)-Ser(^tBu)-OMe” the isolated yield ([1]; whole synthesis, over 15 steps) was 54% yield over 15 steps.
H-CYAT-NHBn showed a step yield ([1]; coupling step) of 43%.
H-EYTT-NHBn gave a step yield ([1]; coupling step, TFA salt, run 1) of 71% yield and a step yield ([1]; coupling step, TFA salt, run 2) of 88% yield.
With H-Val-Gln-Lys-Asp(SH)-Val-Thr-Ser-OMe the step yield ([1]; late stage modification step) was 57% yield.
